The text below walks through data of patent CN114480298A.

Test [1] has as its target T1, 人TIGIT重组蛋白 (真核293F细胞表达, 胞外区Met22-Pro141, C端6×His) (human) (UniProt Q495A1).
T1 sequence: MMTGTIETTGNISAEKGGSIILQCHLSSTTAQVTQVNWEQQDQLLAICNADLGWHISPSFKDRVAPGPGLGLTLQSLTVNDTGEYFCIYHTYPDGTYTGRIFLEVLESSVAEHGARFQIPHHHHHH
Put plainly: indirect ELISA, plate coated with 1 µg/mL antigen, antibody 0.5 µg/mL. A general note: ELISA stands for enzyme-linked immunosorbent assay.

Test [2] has as its target T1, 人TIGIT重组蛋白 (真核293F细胞表达, 胞外区Met22-Pro141, C端6×His) (human). Put plainly: Western blot, 0.2 μg antigen per lane, primary antibody 0.2 µg/mL. Background: Immunoblotting shows a protein as a band on a membrane.

Results are given in words; binding and its absence hold for the method and conditions named. Some results given as binding are weak or reduced against the parent protein; the word gives no strength. Tags and fused reporters may be left off the sequences shown.

B1: 抗TIGIT单克隆抗体MJ12-30 (antibody, mouse IgG1, kappa, V domains shown)
VH: EVKLEQSGGVLVQPGGSRKLSCAASGFTFHSFGMHWVRQAPEKGLEWVAYISSGGSTIFYADTVKGRFTISRDNPKNTLFLQMTSLRSEDTAMYYCAGSDHGNLGYWGQGTTLTVSS
VL: DIVLTQSPLSLSVSLGDQASISCRSSQSILHSGGNTYLDWFLQRPGQSPKLLIYKVSNRISGVPDRFSGSGAGTDFTLKISRVEAEDLGVYYCFQGNHVPPTFGGGTKLEIKR
In the case of B1, the binding entry in test [1] and in test [2] was “binds” each time.
